{"sequences": {"note": "Amino acid sequences for entries named in this document (tags omitted). Residues count along the entry.", "UniProt P35968, 20-1356": "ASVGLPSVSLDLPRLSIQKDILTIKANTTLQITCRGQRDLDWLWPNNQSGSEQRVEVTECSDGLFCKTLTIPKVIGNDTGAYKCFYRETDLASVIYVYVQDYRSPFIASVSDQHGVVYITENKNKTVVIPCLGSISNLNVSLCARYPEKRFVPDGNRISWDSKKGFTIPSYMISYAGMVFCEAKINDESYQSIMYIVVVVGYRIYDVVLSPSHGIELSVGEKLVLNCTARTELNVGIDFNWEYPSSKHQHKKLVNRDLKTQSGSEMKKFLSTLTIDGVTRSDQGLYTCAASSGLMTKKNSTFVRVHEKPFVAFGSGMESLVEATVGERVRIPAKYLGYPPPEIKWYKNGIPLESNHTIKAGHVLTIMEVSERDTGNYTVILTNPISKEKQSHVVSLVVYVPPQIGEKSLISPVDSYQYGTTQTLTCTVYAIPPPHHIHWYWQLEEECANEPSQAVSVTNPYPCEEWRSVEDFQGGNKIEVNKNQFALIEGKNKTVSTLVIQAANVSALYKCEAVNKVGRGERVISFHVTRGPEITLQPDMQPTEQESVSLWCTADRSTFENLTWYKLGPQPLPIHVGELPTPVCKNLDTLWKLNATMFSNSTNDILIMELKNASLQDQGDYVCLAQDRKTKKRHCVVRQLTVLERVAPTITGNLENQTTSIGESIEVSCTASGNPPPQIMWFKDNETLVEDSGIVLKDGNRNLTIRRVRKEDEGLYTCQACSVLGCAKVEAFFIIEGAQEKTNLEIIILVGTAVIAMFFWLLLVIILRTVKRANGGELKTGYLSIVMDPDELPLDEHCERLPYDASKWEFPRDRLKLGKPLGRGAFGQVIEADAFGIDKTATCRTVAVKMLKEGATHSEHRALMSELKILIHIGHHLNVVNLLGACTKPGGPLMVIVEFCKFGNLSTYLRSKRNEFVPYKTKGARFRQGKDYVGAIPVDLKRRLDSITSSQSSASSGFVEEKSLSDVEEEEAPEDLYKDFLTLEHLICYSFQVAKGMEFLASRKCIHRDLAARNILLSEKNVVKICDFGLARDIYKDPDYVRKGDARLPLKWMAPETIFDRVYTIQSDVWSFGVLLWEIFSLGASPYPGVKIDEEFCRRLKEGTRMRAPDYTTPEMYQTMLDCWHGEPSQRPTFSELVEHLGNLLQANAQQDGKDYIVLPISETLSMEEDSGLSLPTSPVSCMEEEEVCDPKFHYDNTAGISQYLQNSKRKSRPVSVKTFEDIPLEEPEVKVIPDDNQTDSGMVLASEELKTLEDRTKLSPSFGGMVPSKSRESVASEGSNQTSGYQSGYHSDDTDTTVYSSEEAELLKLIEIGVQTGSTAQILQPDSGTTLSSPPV"}, "source": "patent US20240058459A1", "about": "(Ashvattha Therapeutics, Inc., priority 2019, published 2024)", "biological_target": "VEGFR2 (Homo sapiens (Human), UniProt P35968)", "assay": "In vitro kinase binding assay (VEGFR2)", "settings": "VEGFR2, after attachment of PEG linker", "experimental": "All reactions performed in polypropylene 384-well plate. Each was a final volume of 0.02 ml.", "note": "For at least one compound, name, drawing or mass did not settle the structure.", "data": [{"molecule": "Cc1[nH]c(/C=C2\\C(=O)Nc3ccc(F)cc32)c(C)c1C(=O)NCCNC(=O)CCOCCOCCOCCN=[N+]=[N-]", "values": [{"measurement": "decrease of binding affinity relative to free sunitinib", "result": "around 8 folds"}]}]}
